Among the data in PubChem BioAssay AID662 (National Center for Advancing Translational Sciences (NCATS), 2007) are AC50 values, retold here.

Several values for one entry are separate records, joined by “and”; a condition that tells them apart may be missing. Identical values can stand only once. Some of the results follow. These are further read-outs of the screen, such as a control signal, another cell line or another target. No call is given for them. Compounds called inactive in the main read-out are mostly missing here. The note in brackets gives the kind of curve behind each potency; many fits are weak.

One may read the AC50 as the concentration giving half of the maximal activity seen.

The assay is described as follows: Cell signaling CRE-BLA (Fsk stim). As to conditions: CHO CRE-bla reporter (cAMP response element driving beta-lactamase), forskolin EC10, beta-lactamase ratio; measured here: 460 nm blue channel. The method in brief: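 CHO CRE-bla cells, overnight plating in Opti-MEM with 0.5% dialyzed FBS; cpd titration + EC10 NKH 477, 3 h 37 °C; CCF4 2 h RT; ex 405/em 460 vs 530 ratio → %Activity, AC50.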
`COc1ccc(-c2nn3c(-c4ccc(F)cc4)nnc3s2)cc1`: the AC50 is 5.01 µM [falling, single point].

In the case of `Cc1n[nH]c(C)c1S(=O)(=O)N(CC(=O)Nc1ccc2c(c1)OCCO2)c1ccc(C(C)C)cc1`, the concentration at half-maximal activity (AC50) was 10 µM [falling, partial curve].

With `Cc1nc2cnc(N3CCN(C)CC3)nc2n(Cc2cccs2)c1=O`, the AC50 is 12.6 µM [rising, single point].

For `COc1ccc(S(=O)(=O)N(C)CC(=O)O)c2ccccc12`, the AC50 was 0.0501 µM [falling, full curve, poor fit].

As to `COc1ncc2nc(-c3ccc(F)cc3)c(=O)n(Cc3ccc(F)cc3)c2n1`, the AC50 is 10 µM [rising, partial curve].

Turning to `COc1cccc(Nc2ncc3nc(CCc4ccccc4)c(=O)n(C[C@H]4CCCO4)c3n2)c1`, the AC50 is 7.94 µM [rising, partial curve].

Take `CCCn1c(=O)c2ccccc2n2c(SCCOc3ccc(C)cc3)nnc12`: the AC50 is 2 µM [falling, partial curve].

For `N#CC1=C(N)OC2=C(C(=O)CCC2)C1c1ccccc1` (configuration not stated), the AC50 was 1 µM [rising, partial curve].

For the compound `N#Cc1nc(-c2ccco2)oc1N1CCOCC1`, the AC50 was 0.794 µM [rising, partial curve].

For `Clc1ccc(OCc2nc(-c3ccccn3)no2)c(Br)c1`, the concentration at half-maximal activity (AC50) is 10 µM [rising, partial curve].

For `Nc1c(C(=O)NCc2ccco2)sc2nc3c(cc12)C(=O)CCC3`, the AC50 is 12.6 µM [rising, single point].

Turning to `COc1ccc(S(=O)(=O)N2CCN(c3cccc(C)c3C)CC2)cc1`, the half-maximal activity concentration (AC50) is 6.31 µM [falling, partial curve].

In the case of `CCOc1ccc(-c2nc(-c3ccccc3)no2)cc1OCC`, the AC50 is 10 µM [rising, single point].

On to `CN(C)C(=O)CSc1nnc(-c2cc(-c3cccs3)nc3ccccc23)o1`, for which the AC50 was 0.316 µM [falling, partial curve].

As for `COc1ccc(-n2c(=O)c(-c3cccs3)nc3cnc(N4CCN(C)CC4)nc32)cc1`, the concentration at half-maximal activity (AC50) is 12.6 µM [rising, partial curve].

`Cn1c(=O)c(-c2ccc(F)cc2)nc2cnc(N3CCOCC3)nc21`: the AC50 is 2 µM [rising, full curve].

As for `CCn1nnnc1SCC(=O)Nc1cccc(NC(C)=O)c1`, the AC50 is 0.0126 µM [falling, full curve, poor fit].

With `Cc1ccc(Cn2c(N3CCCCCC3)nc3c2c(=O)[nH]c(=O)n3C)cc1`, the AC50 was 10 µM [rising, single point].

As for `CCOC(=O)CSc1nnc(CSc2nc3sc4c(c3c(=O)[nH]2)CCC4)n1C`, the AC50 was 12.6 µM [rising, partial curve].

For `O=C1c2ccccc2-c2c1nc1c([n+]2[O-])CCCC1`, the half-maximal activity concentration (AC50) is 10 µM [rising, single point].

`CN(CCC#N)C(=O)CSc1ncnc2sc(-c3ccccc3)cc12`: the AC50 was 3.98 µM [falling, single point].

Turning to `COc1cccc(-c2cc(C(F)(F)F)nc(-n3cncn3)n2)c1`, the AC50 was 7.94 µM [rising, partial curve].

`COc1ccc(-c2nc3n(c(=O)c2C#N)CCCS3)cc1`: the AC50 was 10 µM [rising, single point].

Regarding `COC(=O)c1ccccc1Nc1cc(C)nc2nc(C)nn12`, the AC50 was 12.6 µM [rising, partial curve].

Turning to `O=C(CCc1ccccc1)Nc1ccc(Cl)cn1`, the half-maximal activity concentration (AC50) was 12.6 µM [rising, single point].

With `O=C(CCCC(=O)N(CC(=O)NC1CCCC1)Cc1ccccc1)Nc1ccccn1`, the half-maximal activity concentration (AC50) was 3.16 µM [falling, partial curve].

`CCCN1CN(Cc2ccco2)c2nc3ccccc3n2C1`: the AC50 is 0.0251 µM [falling, full curve, poor fit].

For `COc1cccc(NC(=O)NC2(C(F)(F)F)Oc3ccccc3O2)c1`, the AC50 was 12.6 µM [falling, partial curve, poor fit].

Take `CCN(CC)CCCNC(=O)N[C@@H](Cc1ccccc1)C(=O)O`: the AC50 was 12.6 µM [falling, partial curve].

On to `O=C(c1ccc2c(c1)OCCO2)N(c1ccccn1)C1CCCCC1`, for which the AC50 is 0.00794 µM [falling, full curve, poor fit].

Turning to `CCn1c(SCC(=O)Nc2ccc(C(=O)OC)cc2)nnc1-c1cccs1`, the AC50 is 25.1 µM [rising, single point].

On to `COc1ccc(C(=O)NCCc2ccc(S(N)(=O)=O)cc2)cc1OC`, for which the AC50 was 0.398 µM [falling, full curve].

As to `CCCCn1c2nc3ccccc3nc2c2c(=O)n(C(C)CC)cnc21` (configuration not stated), the half-maximal activity concentration (AC50) was 2 µM [rising, partial curve].

Regarding `CCc1ccc2c(CN3CCN(S(=O)(=O)c4ccc5c(c4)OCCO5)CC3)cc(=O)oc2c1`, the AC50 was 25.1 µM [falling, single point].

In the case of `COc1ccc(OC)c(S(=O)(=O)N2C(C)CCCC2C)c1` (configuration not stated), the AC50 is 2 µM [falling, full curve, poor fit].

Regarding `Clc1cccc(N2CCN(Cc3nc(-c4ccccc4)no3)CC2)c1`, the AC50 is 6.31 µM [falling, partial curve].

Consider `CCN(Cc1cc2ccccc2[nH]c1=O)S(=O)(=O)c1ccccc1`, for which the AC50 is 10 µM [rising, single point].

For `CCCn1c(SCC(=O)N2CCN(c3ccc(OC)cc3)CC2)nc2c1c(=O)n(C)c(=O)n2C`, the AC50 was 10 µM [rising, partial curve].

For `O=C(COc1ccc(Cl)cc1Cl)NC(=O)N1CCCCC1`, the AC50 is 25.1 µM [rising, single point].

Consider `CCn1cc(C(=O)NCc2ccc3c(c2)OCO3)c(=O)c2cc(F)c(N3CCN(C)CC3)cc21`, for which the AC50 is 10 µM [rising, partial curve].

Take `CCOc1ccc(-c2nc(N)nc(C)c2-c2ccc(OC)c(OC)c2)c(O)c1`: the half-maximal activity concentration (AC50) was 5.01 µM [falling, partial curve, poor fit].

Turning to `CCCN(C(=O)CSc1nnc(-c2ccoc2C)n1N)C1CCS(=O)(=O)C1` (configuration not stated), the AC50 is 2.51 µM [falling, single point].

Take `COc1ccc2nc3c(c(-c4ccccc4)c2c1)CCC3`: the AC50 was 10 µM [rising, partial curve].

As to `Cn1cccc1Cc1nnc(SCC(=O)Nc2ccc3c(c2)OCCO3)n1-c1ccc(F)cc1`, the AC50 is 6.31 µM [falling, partial curve].

For `c1ccc(Nc2cc(Nc3ccccc3)[nH]n2)cc1`, the AC50 is 12.6 µM [falling, single point].

As to `Cc1noc(C)c1C(=O)OCC(=O)c1c[nH]c2ccccc12`, the AC50 was 5.01 µM [falling, single point].

For `COCCn1c(=O)c(-c2ccc(Cl)cc2)nc2cnc(Nc3ccccc3)nc21`, the AC50 is 0.794 µM [rising, full curve].

With `OCCN(Cc1ccccc1)Cc1ccc(F)c(F)c1`, the AC50 was 0.00398 µM [falling, full curve, poor fit].

On to `COc1ccc(NC(=O)CSc2nc3ccccc3c(=O)n2-c2ccc3c(c2)OCO3)c(OC)c1`, for which the AC50 was 3.98 µM [rising, partial curve].

In the case of `CCOC(=O)C1=C(C)NC2=C(C(=O)CC(c3ccc(OC)c(OC)c3)C2)C1c1ccc(C)o1` (configuration not stated), the AC50 is 6.31 µM [rising, partial curve].

Take `COc1ccc(OC)c(C2C3=C(CCCC3=O)Nc3nc4ccccc4n32)c1` (configuration not stated): the AC50 was 0.0158 µM [falling, full curve, poor fit].

As to `FC(F)(F)c1ccccc1-c1nccc(-n2ccnc2)n1`, the concentration at half-maximal activity (AC50) was 10 µM [rising, single point].

Take `COc1ccc(OCc2nc(C#N)c(N3CCN(c4ccc(OC)cc4)CC3)o2)cc1`: the AC50 is 25.1 µM [falling, single point].

Turning to `Cn1c(NCc2ccccc2)cc(=O)n(C)c1=O`, the AC50 was 25.1 µM [falling, single point].

Consider `CCOC(=O)CN1C(=O)C(O)(c2c(C)[nH]c3ccccc23)c2ccccc21` (configuration not stated), for which the AC50 is 10 µM [falling, partial curve].

Take `COc1ccc(NC(=O)Nc2ccc3nccnc3c2)cc1`: the AC50 is 0.0501 µM [falling, full curve, poor fit].

With `Cc1cccc(CNc2ccnc(-c3ccc(C(=O)N(C)C)cc3)n2)c1`, the AC50 was 0.126 µM [rising, full curve].

As to `COc1cc2ncnc(Nc3cccc(Cl)c3)c2cc1OC`, the AC50 is 25.1 µM [rising, partial curve] and 7.94 µM [rising, full curve, poor fit].

As for `COC(=O)c1ccccc1NC(=O)C1CCN(C(=O)c2cc(OC)c(OC)c(OC)c2)CC1`, the concentration at half-maximal activity (AC50) is 10 µM [rising, single point].

In the case of `O=c1cc(Nc2ccc3c(c2)OCCO3)[nH]c(=O)n1-c1ccc(Cl)cc1`, the AC50 was 0.398 µM [falling, full curve].

For the compound `O=C1c2oc3ccc(F)cc3c(=O)c2C(c2ccccc2)N1CC1CCCO1` (configuration not stated), the AC50 is 25.1 µM [falling, single point].

Consider `Cc1noc(C)c1CSc1nc2[nH]ncc2c(=O)n1-c1ccccc1`, for which the AC50 is 10 µM [rising, partial curve].

Regarding `COc1ccc(-c2noc(N(C)CC(=O)Nc3cccc(C(F)(F)F)c3)n2)cc1`, the AC50 is 0.02 µM [falling, full curve].

Consider `Nc1nc(N)c(N=Nc2ccc(C(=O)O)c(O)c2)c(N)n1`, for which the AC50 is 5.01 µM [falling, single point].

Regarding `COc1ccc(CNC(=O)c2cnn3c(C(F)F)cc(C)nc23)cc1OC`, the AC50 was 10 µM [rising, partial curve].

For `COc1ccc(-c2nc3cnc(N4CCOCC4)nc3n(C3CC3)c2=O)cc1`, the AC50 is 1 µM [rising, full curve].

`O=S1(=O)CCN=C2SC3=C(CCCC3)N21`: the AC50 is 3.98 µM [rising, single point].
